Binding data for two molecules are collected here from patent US12529705 (dated 2026).

By UniProt entry, the sequences of proteins in these tests, tags left out. Where a name states a change or a piece, a line headed by the entry shows the natural chain unless it says otherwise.
UniProt Q14114: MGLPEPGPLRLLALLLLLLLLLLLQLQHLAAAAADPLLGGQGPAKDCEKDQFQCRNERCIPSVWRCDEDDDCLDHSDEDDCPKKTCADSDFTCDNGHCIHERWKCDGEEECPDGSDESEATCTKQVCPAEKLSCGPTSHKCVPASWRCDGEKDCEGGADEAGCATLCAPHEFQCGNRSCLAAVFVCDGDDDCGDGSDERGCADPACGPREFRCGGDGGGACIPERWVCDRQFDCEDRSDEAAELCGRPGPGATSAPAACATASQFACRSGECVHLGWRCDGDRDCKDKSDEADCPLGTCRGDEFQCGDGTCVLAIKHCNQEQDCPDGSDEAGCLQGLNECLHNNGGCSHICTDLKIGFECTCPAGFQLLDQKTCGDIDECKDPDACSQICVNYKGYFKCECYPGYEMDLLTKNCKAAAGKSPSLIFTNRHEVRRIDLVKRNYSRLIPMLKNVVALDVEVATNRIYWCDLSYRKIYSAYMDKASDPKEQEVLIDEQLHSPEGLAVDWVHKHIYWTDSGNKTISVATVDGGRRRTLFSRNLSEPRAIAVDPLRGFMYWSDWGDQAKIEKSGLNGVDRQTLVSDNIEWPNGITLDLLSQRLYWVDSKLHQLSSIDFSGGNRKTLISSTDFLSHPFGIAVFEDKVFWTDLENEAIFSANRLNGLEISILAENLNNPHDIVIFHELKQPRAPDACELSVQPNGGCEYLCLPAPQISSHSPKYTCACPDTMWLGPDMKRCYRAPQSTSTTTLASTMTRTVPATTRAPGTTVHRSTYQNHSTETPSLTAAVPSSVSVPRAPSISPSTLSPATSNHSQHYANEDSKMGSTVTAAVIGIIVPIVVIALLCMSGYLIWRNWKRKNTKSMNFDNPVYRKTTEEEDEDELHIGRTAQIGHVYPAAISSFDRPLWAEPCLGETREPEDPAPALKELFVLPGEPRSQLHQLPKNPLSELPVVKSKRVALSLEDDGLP

The target in assay [1] is full-length protein LRP8 expressed in N2A cells transfected with a cDNA coding for LRP8 (Origene, Cat. No. RC220963) (human) (UniProt Q14114). The assay can be described thus: Western blot, lysate of LRP8-transfected N2A cells, antibody at 1 µg/ml. A general note: In western blotting, separated proteins are transferred to a membrane and probed.
Assay [2] deals with full-length LRP8 protein (105 kDa) in human brain tissue and cerebrospinal fluid samples (human) (UniProt Q14114). The assay can be described thus: sandwich ELISA, GS1 or GS2 as capture antibody, 25F7F1 as detection antibody, brain fraction above 30 kDa.

Results are given in words; binding and its absence hold for the method and conditions named. Some binding calls cover weakened binding; strength is not graded here.

B1: monoclonal antibody of hybridoma 17E11C2 (antibody, V domains shown)
VH: EVQLQQSGPVLVKPGASVKMSCKASGYKFTDYFMNWVKKSHGKSLEWIGVINPYNGGTRYNQKFKGKATLTVDKSSSTAYMELNSLTFEDSAVYYCARETVDLAWFVHWGQGTLVTVSA
VL: DVLMTQTPPSLPVTLGDQASISCRSSQSIVYSNGNTYLEWYLQKPGQSPKLLIYKVSNRFSGVPDRFSGSGSGTDFTLKISRVEAEDLGIYYCFQGSHVPLTFGAGTKLELK
In the case of B1, in assay [1], the binding result is listed as “binds”.

B2: monoclonal antibody of hybridoma 25F7F1 (antibody, V domains shown)
VH: EVQLQQSGPVLVKPGASVKMSCKASGYKFTDHFMNWVKKNHGKSLEWIGVINPYNGGTRLNPKFKGKATLTVDKSSSTVYMELNSLTFEDSAVYYCARETIDLAWFAYWGQGTLVTVSA
VL: DVLMTQTPPSLPVTLGDQASISCRSSQSIVYSNGKTYLEWYLQKPGQSPKLLMYKVSNRFSGVPDRFSGSGSGTDFTLKISSVEAEDLGIYYCFQGSHVPLTFGAGTKLELK
notes: Mouse (BALB/c) hybridoma monoclonal; also called antibody produced by 25F7F1 mouse hybridomas
As for B2, in assay [2], the binding entry is on record as “binds”.
